Data as given in PubChem BioAssay AID1224826 (NIAID, 2016)
The whole screen tested about 17,000 reagents; below is a part drawn at random. About 1,110 of all reagents (6.6%) were called active. 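Active means lowered or raised reporter signal; replicate intensities are raw and not normalised per plate.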 No sequences are given here.

Purpose: 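Genes that change LPS-induced Tnf promoter activity in mouse macrophages when knocked down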 (primary screen)
System: RAW264.7 G9 macrophages from mouse bearing reporters for p65 (GFP) and the Tnf promoter (mCherry)
Reagents: siRNA pool against mouse genes, 100 nM
Timing: 16 h of LPS stimulation, after 2 days of siRNA transfection
Treatment: bacterial lipopolysaccharide (Salmonella minnesota R595), 10 ng/ml
Measurement: 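Imaged Tnf reporter mCherry in nuclei, minus background, normalised per plate to the median and expressed as robust z-scores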
Reading the numbers: Tnf reporter robust z-score: higher = stronger Tnf promoter reporter signal after LPS; Tnf reporter intensity: higher = stronger Tnf promoter reporter signal
Hit rule: 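Called active when robust z-score is at most -1.3, matching the median of the Tlr4 knock-down control, or over 3; control wells and wells with under 50 cells never active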
Meaning of the calls: active = Tnf reporter clearly lowered or raised; inactive = no clear change in Tnf reporter

Gene,PubChem SID,Tnf reporter robust z-score,fewer than 50 cells in well,"Tnf reporter intensity, replicate 1","Tnf reporter intensity, replicate 2",Call
Kif21a,SID315467619,-1.21,enough cells in well,120,73.9,inactive
Rundc1,SID315478088,0.31,enough cells in well,194,177,inactive
G0s2,SID315466781,-1.05,enough cells in well,156,94.6,inactive
Slc7a11,SID315470445,-0.02,enough cells in well,92.1,106,inactive
Scamp5,SID315471690,0.73,enough cells in well,184,134,inactive
Cadm1,SID315471302,-1.58,enough cells in well,94,58.7,active
Slc37a2,SID315471702,-0.9,enough cells in well,72,81.4,inactive
Elf4,SID315471576,-2.24,enough cells in well,62.6,86.6,active
Or51e2,SID315477180,2.26,enough cells in well,431,169,inactive
Kl,SID315467637,0.45,enough cells in well,256,127,inactive
Nutf2,SID315473390,-1,enough cells in well,115,107,inactive
Tspan8,SID315477995,-0.34,enough cells in well,104,82.4,inactive
Lrch4,SID315478925,1.1,enough cells in well,310,106,inactive
Ddx19b,SID315479194,,fewer than 50 cells per well; well left out of calls,67.1,0.259,inactive
Vcp,SID315480861,,fewer than 50 cells per well; well left out of calls,0,146,inactive
Epb41l2,SID315466513,1.11,enough cells in well,333,192,inactive
Psmb4,SID315468740,0.27,enough cells in well,267,211,inactive
Arhgef17,SID315477475,-0.46,enough cells in well,146,139,inactive
Rab2a,SID315471956,-0.37,enough cells in well,285,169,inactive
Rfc1,SID315468933,0.47,enough cells in well,357,239,inactive
Bbs2,SID315472986,-1.02,enough cells in well,82.5,124,inactive
Cfap95,SID315473057,2.12,enough cells in well,360,290,inactive
Lyz3,SID315475462,-1.42,enough cells in well,87.3,90,active
Scn8a,SID315469120,-1,enough cells in well,215,118,inactive
Herc6,SID315472861,2.09,enough cells in well,281,255,inactive
Musk,SID315468255,0.39,enough cells in well,216,123,inactive
Spsb2,SID315467022,0.03,enough cells in well,265,154,inactive
Akr1c6,SID315475859,-0.33,enough cells in well,132,170,inactive
Snx17,SID315480751,-1.12,enough cells in well,69.1,43.5,inactive
Hspa5,SID315467044,0.36,enough cells in well,278,201,inactive
H2bc1,SID315481042,-0.74,enough cells in well,198,114,inactive
Zfp688,SID315473761,,fewer than 50 cells per well; well left out of calls,241,59.9,inactive

Reagents above with an active call (3):
Gene,PubChem SID,Tnf reporter robust z-score,fewer than 50 cells in well,"Tnf reporter intensity, replicate 1","Tnf reporter intensity, replicate 2",Call
Cadm1,SID315471302,-1.58,enough cells in well,94,58.7,active
Elf4,SID315471576,-2.24,enough cells in well,62.6,86.6,active
Lyz3,SID315475462,-1.42,enough cells in well,87.3,90,active

The listing continues:
Gene,PubChem SID,Tnf reporter robust z-score,fewer than 50 cells in well,"Tnf reporter intensity, replicate 1","Tnf reporter intensity, replicate 2",Call
Supt4a,SID315469527,-0.35,enough cells in well,306,138,inactive
Rhcg,SID315471451,-0.69,enough cells in well,84.5,92.8,inactive
Defb2,SID315466300,1.37,enough cells in well,229,273,inactive
Trim27,SID315468957,1.05,enough cells in well,236,188,inactive
Hipk2,SID315467208,-1.65,enough cells in well,92.4,75.5,active
Nek7,SID315471995,-0.3,enough cells in well,166,154,inactive
Pabpc5,SID315475957,-0.05,enough cells in well,138,129,inactive
Foxred1,SID315479232,-0.54,enough cells in well,166,172,inactive
Rbm45,SID315479569,0.88,enough cells in well,248,321,inactive
Serpinb11,SID315472738,,fewer than 50 cells per well; well left out of calls,47,50.3,inactive
Stard8,SID315479318,1.38,enough cells in well,169,125,inactive
Hras,SID315467294,-1.89,enough cells in well,115,42,active
Ccdc7a,SID315475026,1.76,enough cells in well,359,96,inactive
Cpt1b,SID315466100,-0.69,enough cells in well,133,144,inactive
Ifngr2,SID315467399,1.04,enough cells in well,329,247,inactive
Cfap20,SID315467073,-0.06,enough cells in well,225,171,inactive
Vmn1r89,SID315477335,-0.51,enough cells in well,116,60,inactive
Ier5,SID315467377,6.2,enough cells in well,601,321,active
Cyp26a1,SID315466221,0.67,enough cells in well,268,172,inactive
Spink10,SID315481502,-0.18,enough cells in well,162,152,inactive
Mlph,SID315477369,2.01,enough cells in well,319,212,inactive
C130074G19Rik,SID315478523,-0.31,enough cells in well,96.9,151,inactive
Grcc10,SID315467018,-0.15,enough cells in well,266,134,inactive
Or5h17,SID315480155,-0.55,enough cells in well,151,81,inactive
Pdc,SID315469034,-0.64,enough cells in well,241,83.5,inactive
Irf7,SID315471147,0.4,enough cells in well,293,156,inactive
